Results from patent US20240000821A1, “CHEMICAL INHIBITORS AGAINST KINASES TO BLOCK TELOMERE ELONGATION IN CANCER” (THE JOHNS HOPKINS UNIVERSITY, priority 2016, published 2024).
At least one compound was matched to its structure with a doubt left.

System: SL13 cells
Assay: Inhibition of SVA mediated telomere elongation (telomere Southern blot)
Type: cell-based, mouse
Details: days 2 and 6 post SVA transduction
Description: Inhibition of SVA mediated telomere elongation. First, 2×10^5 SL13 cells were plated onto a 6-well dish in DMEM (Gibco) with 10% FBS (Sigma) and 1% Penicillin-Streptomycin-Glutamine (Gibco). SL13 cells are a mouse fibroblast line that was derived as described (Lee et al., 299(Pt 1) BIOCHEM. J. 123-28 (2015)). After 24 hours, the drug or vehicle was added at the indicated concentration for the duration of the experiment. 24 hours later, SVA virus was added at an MOI of 0.5. 2 population doublings were estimated during the initial 48 hours; therefore 400,000 transduction units of SVA were added to 800,000 cells. Media was changed at 24 hours post transduction, and cell pellets were collected at 2 and 6 days post transduction.
Telomere Southern Blot. Telomere length was measured by telomere restriction fragment Southern blot. Genomic DNA was extracted using Puregene Core Kit A (Qiagen). 1-3 μg of gDNA was digested with MseI (NEB) and loaded onto a 0.7% TAE Agarose gel. The gel was run at 37 V for 16 hours, then denatured for 30 minutes in 0.5 M NaOH and 1.5 M NaCl, then neutralized for 30 minutes in 1.5 M NaCl and 0.5 M Tris-HCl pH 7.4. The DNA was transferred from the gel to a nylon membrane (Amersham Hybond N+) by the weighted method overnight. […] Labeled probe was counted, denatured at 100° C., and 10^6 counts/mL telomere probe and 2×10^4 counts/mL of 2-log ladder were added. […]

| SMILES | effect on telomere elongation by SVA (10 nM, FIG. 8B) | effect on telomere elongation by SVA (5 μM) |
| --- | --- | --- |
| CC(=O)Nc1cccc(-n2c(=O)n(C3CC3)c(=O)c3c(Nc4ccc(I)cc4F)n(C)c(=O)c(C)c32)c1 [Trametinib] | partially blocked telomere elongation |  |
| Cn1cnc2c(F)c(Nc3ccc(Br)cc3Cl)c(C(=O)NOCCO)cc21 [selumetinib] |  | partially blocked telomere elongation |
